Reference: publication PMC8799869, “D-enantiomers of CATH-2 enhance the response of macrophages against Streptococcus suis serotype 2” (Journal of Advanced Research, 2021)

Assay: Isothermal titration calorimetry (ITC), peptide binding to LTA
Design: species or system S. aureus
Settings: 200 µM peptide titrated into 37.2 µM LTA-SA, 37 °C, three experiments averaged, independent model
Procedure: The interaction between the D-CATH-2 peptides and LTA-SA was tested using isothermal titration calorimetry (ITC). All ITC experiments were performed on a Low Volume NanoITC (TA instruments - Waters LLC, New Castle, USA). Peptide solution or 37.2 µM LTA-SA was prepared in MilliQ:dPBS (Gibco) in a 3:1 ratio. The chamber was filled with 164 µL LTA-SA and the peptide was loaded in the 50 µL syringe. Every 300 s, 1.99 µL peptide was titrated into the chamber at 37 °C. Data was analyzed using the Nano Analyze software (TA instruments-Waters LLC). The data of three experiments was averaged and an independent model was used to determine the peptide-LTA interaction.

## CC[C@@H](C)[C@@H](NC(=O)[C@@H](CCCCN)NC(=O)[C@@H](CCCNC(=N)N)NC(=O)[C@@H](CC(C)C)NC(=O)[C@@H](Cc1ccccc1)NC(=O)[C@@H](CCCNC(=N)N)NC(=O)CNC(=O)[C@@H](Cc1ccccc1)NC(=O)[C@H](N)CCCNC(=N)N)C(=O)N[C@H](CCCNC(=N)N)C(=O)N[C@H](CCCNC(=N)N)C(=O)N[C@H](Cc1ccccc1)C(=O)N[C@H](CCCNC(=N)N)C(=O)N1CCC[C@@H]1C(=O)N[C@H](CCCCN)C(=O)N[C@@H](C(=O)N[C@@H](C(=O)N[C@@H](C(=O)N[C@@H](C(=O)N[C@@H](C(=O)N[C@H](CCC(N)=O)C(=O)NCC(=O)N[C@H](CO)C(=O)N[C@H](C)C(=O)N[C@H](CCCNC(=N)N)C(=O)N[C@H](Cc1ccccc1)C(N)=O)[C@H](C)CC)[C@H](C)O)[C@H](C)CC)[C@H](C)O)C(C)C [D-CATH-2] (H-[dR][dF]G[dR][dF][dL][dR][dK][dI][dR][dR][dF][dR][dP][dK][dV][dT][dI][dT][dI][dQ]G[dS][dA][dR][dF]-NH2; N-terminus assumed)
  n, number of peptide molecules binding to one LPS molecule: 0.543
  ΔH, enthalpy changes: -5.057 kcal/mol
  ΔS, entropy changes: 37.39 J/mol·K

## CC[C@@H](C)[C@@H](NC(=O)[C@@H](CCCCN)NC(=O)[C@@H](CCCNC(=N)N)NC(=O)[C@@H](CC(C)C)NC(=O)[C@@H](Cc1ccccc1)NC(=O)[C@@H](CCCNC(=N)N)NC(=O)CNC(=O)[C@@H](Cc1ccccc1)NC(=O)[C@H](N)CCCNC(=N)N)C(=O)N[C@H](CCCNC(=N)N)C(=O)N[C@H](CCCNC(=N)N)C(=O)N[C@H](Cc1ccccc1)C(=O)N[C@H](CCCNC(=N)N)C(=O)N1CCC[C@@H]1C(=O)N[C@H](CCCCN)C(=O)N[C@@H](C(=O)N[C@@H](C(=O)N[C@@H](C(=O)N[C@@H](C(=O)N[C@@H](C(=O)N[C@H](CCC(N)=O)C(N)=O)[C@H](C)CC)[C@H](C)O)[C@H](C)CC)[C@H](C)O)C(C)C [D-C(1–21)] (H-[dR][dF]G[dR][dF][dL][dR][dK][dI][dR][dR][dF][dR][dP][dK][dV][dT][dI][dT][dI][dQ]-NH2; N-terminus and C-terminus assumed)
  n, number of peptide molecules binding to one LPS molecule: 0.207
  ΔH, enthalpy changes: -20.47 kcal/mol
  ΔS, entropy changes: −180.6 J/mol·K

## CC[C@@H](C)[C@@H](NC(=O)[C@@H](CCCCN)NC(=O)[C@@H](CCCNC(=N)N)NC(=O)[C@@H](CC(C)C)NC(=O)[C@@H](Cc1ccccc1)NC(=O)[C@H](N)CCCNC(=N)N)C(=O)N[C@H](CCCNC(=N)N)C(=O)N[C@H](CCCNC(=N)N)C(=O)N[C@H](Cc1ccccc1)C(=O)N[C@H](CCCNC(=N)N)C(=O)N1CCC[C@@H]1C(=O)N[C@H](CCCCN)C(=O)N[C@@H](C(=O)N[C@@H](C(=O)N[C@@H](C(=O)N[C@@H](C(=O)N[C@@H](C(=O)N[C@H](CCC(N)=O)C(N)=O)[C@H](C)CC)[C@H](C)O)[C@H](C)CC)[C@H](C)O)C(C)C [D-C(4–21)] (H-[dR][dF][dL][dR][dK][dI][dR][dR][dF][dR][dP][dK][dV][dT][dI][dT][dI][dQ]-NH2; N-terminus and C-terminus assumed)
  n, number of peptide molecules binding to one LPS molecule: 1.209
  ΔH, enthalpy changes: -3.999 kcal/mol
  ΔS, entropy changes: 54.68 J/mol·K

Where a SMILES comes first, the peptide text is derived from it. [ ]: non-standard residue; d: D form.
